Results as given in US20200131144A1, “AMINE OR (THIO)AMIDE CONTAINING LXR MODULATORS” (Phenex-FXR GmbH, priority 2017, published 2020).

Amino acid sequences for entries named in this document (tags omitted). Chains listed by the source or under a name are the forms on record and can include a tag or linker. Residues count along the entry.
UniProt Q13133, whole entry: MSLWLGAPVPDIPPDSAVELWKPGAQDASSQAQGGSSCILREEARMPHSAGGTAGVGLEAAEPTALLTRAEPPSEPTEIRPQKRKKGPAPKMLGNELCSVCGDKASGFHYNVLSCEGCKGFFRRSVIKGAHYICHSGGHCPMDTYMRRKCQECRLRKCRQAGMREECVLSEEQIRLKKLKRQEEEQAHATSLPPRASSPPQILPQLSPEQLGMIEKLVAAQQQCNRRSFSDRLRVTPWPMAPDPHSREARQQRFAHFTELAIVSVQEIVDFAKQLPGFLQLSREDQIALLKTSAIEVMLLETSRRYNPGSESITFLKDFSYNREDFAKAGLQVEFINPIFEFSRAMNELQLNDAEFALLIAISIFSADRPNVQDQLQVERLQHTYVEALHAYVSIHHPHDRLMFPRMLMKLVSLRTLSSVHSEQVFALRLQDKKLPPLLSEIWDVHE
UniProt P55055, with tags, fused parts or gaps INS174Q: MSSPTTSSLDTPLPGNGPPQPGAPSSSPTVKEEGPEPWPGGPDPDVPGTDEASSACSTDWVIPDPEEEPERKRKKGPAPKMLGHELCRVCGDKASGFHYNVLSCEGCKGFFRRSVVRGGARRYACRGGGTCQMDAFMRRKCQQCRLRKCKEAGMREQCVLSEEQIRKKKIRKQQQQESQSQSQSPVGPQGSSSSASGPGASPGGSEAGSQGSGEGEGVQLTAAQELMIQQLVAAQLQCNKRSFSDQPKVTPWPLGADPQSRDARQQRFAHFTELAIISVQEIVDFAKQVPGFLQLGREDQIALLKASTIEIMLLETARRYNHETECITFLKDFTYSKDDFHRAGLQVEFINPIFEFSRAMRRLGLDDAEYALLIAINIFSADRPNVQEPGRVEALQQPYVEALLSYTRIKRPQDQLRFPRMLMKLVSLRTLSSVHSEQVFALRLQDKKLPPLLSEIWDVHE
UniProt P55055, 156-460 with tags or gaps INS174Q limits assumed: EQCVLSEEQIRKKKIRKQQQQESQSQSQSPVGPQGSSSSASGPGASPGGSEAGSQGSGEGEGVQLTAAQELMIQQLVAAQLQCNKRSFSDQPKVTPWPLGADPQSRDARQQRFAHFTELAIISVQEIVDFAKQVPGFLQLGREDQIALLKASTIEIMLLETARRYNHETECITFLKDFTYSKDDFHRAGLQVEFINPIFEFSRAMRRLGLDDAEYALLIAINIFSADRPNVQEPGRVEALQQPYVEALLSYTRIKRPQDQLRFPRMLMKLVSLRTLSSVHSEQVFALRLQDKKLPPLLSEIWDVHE

Columns and labels:
LXRα full length (FL) = LXRα full length (FL) (Homo sapiens, UniProt Q13133); assay: LXR Gal4 reporter transient transfection assay, mammalian two-hybrid, FL-M2H Gal4α; conditions: read-out: FL-M2H Gal4α; HEK293 cells; inverse agonist unless *
Description: (§1) The tested compounds were usually dissolved, tested and stored as 20 mM stock solutions in DMSO. Since sulfonyl acetic acid derivatives tend to decarboxylate under these conditions, these stock solutions were prepared, tested and stored as 20 mM DMSO stock solutions containing 100 mM trifluoroacetic acid (5 equivalents). Sulfonyl acetic acid derivatives are shelf stable as solid at rt for long time as reported by Griesbrecht et al. (Synlett 2010:374) or Faucher et al. (J. Med. Chem. 2004; 47:18).
(§2) LXR Gal4 Reporter Transient Transfection Assays
(§3) LXRα and LXRβ activity status was determined via detection of interaction with coactivator and corepressor proteins in mammalian two-hybrid experiments (M2H). […] As cofactors, domains of either the steroid receptor coactivator 1 (SRC1; amino acids 552-887; SEQ ID NO:5) or of the corepressor NCoR (amino acids 1906-2312; NP006302; SEQ ID NO:6) were expressed as fusions to the DNA binding domain of the yeast transcription factor GAL4 (from pCMV-BD; Stratagene). Interaction was monitored via activation of a coexpressed Firefly Luciferase Reporter gene under control of a promoter containing repetitive GAL4 response elements (vector pFRLuc; Stratagene). […] Measurements of luminescence were done in a BMG-luminometer.

[1] = target: GST-LXRβ ligand-binding domain (Homo sapiens, UniProt P55055, INS174Q); assay: TR-FRETβ activity assay (NCoA3 coactivator peptide recruitment); conditions: read-out: FRETβ; 1 μM 24(S)-25-epoxycholesterol as prestimulating agonist; inverse agonist unless *
Description: as §1
Recombinant GST-LXRβ ligand-binding domain (LBD; amino acids 156-461; NP009052; SEQ ID NO:4) was expressed in E. coli and purified via gluthatione-sepharose affinity chromatography. N-terminally biotinylated NCoA3 coactivator peptide (SEQ ID NO:7) was chemically synthesized (Eurogentec). Assays were done in 384 well format (final assay volume of 25 μL/well) in a Tris/HCl buffer (pH 6.8) containing KCl, bovine serum albumin, Triton-X-100 and 1 μM 24(S)-25-epoxycholesterol as LXR-prestimulating agonist. […] The reaction was mixed thoroughly, equilibrated for 1 h at 4° C. and vicinity of LXRβ and coactivator peptide was detected by measurement of fluorescence in a VictorX4 multiplate reader (PerkinElmer Life Science) using 340 nm as excitation and 615 and 665 nm as emission wavelengths. […]

LXRβ full length (FL) = LXRβ full length (FL) (Homo sapiens, UniProt P55055, INS174Q); assay: LXR Gal4 reporter transient transfection assay, mammalian two-hybrid, FL-M2H Gal4β; conditions: read-out: FL-M2H Gal4β; HEK293 cells; inverse agonist unless *
Description: as §1, §2, §3

## Cc1nc2cccnn2c1C(=O)N(Cc1ccc(-c2cccc(C(C)(C)C(=O)O)c2)cc1)Cc1ccc(C(F)(F)F)o1 [27/116]
LXRα full length (FL)
  EC50: 100 to 1000 nM
[1]
  EC50: 1000 to 10000 nM
LXRβ full length (FL)
  EC50: 100 to 1000 nM

The structures given here were assigned with low confidence; some may be wrong.
